# Laboratory results reported in patent US4491631A, “Assay method for lipid component, assay composition, and process for production of enzyme used therefor” (Toyo Jozo Kabushiki Kaisha, priority 1981, dated 1985).
# The chains behind the UniProt entries cited, without tags or fusion partners. Where a name states a change or a piece, a line headed by the entry shows the natural chain unless it says otherwise.
# UniProt P28793: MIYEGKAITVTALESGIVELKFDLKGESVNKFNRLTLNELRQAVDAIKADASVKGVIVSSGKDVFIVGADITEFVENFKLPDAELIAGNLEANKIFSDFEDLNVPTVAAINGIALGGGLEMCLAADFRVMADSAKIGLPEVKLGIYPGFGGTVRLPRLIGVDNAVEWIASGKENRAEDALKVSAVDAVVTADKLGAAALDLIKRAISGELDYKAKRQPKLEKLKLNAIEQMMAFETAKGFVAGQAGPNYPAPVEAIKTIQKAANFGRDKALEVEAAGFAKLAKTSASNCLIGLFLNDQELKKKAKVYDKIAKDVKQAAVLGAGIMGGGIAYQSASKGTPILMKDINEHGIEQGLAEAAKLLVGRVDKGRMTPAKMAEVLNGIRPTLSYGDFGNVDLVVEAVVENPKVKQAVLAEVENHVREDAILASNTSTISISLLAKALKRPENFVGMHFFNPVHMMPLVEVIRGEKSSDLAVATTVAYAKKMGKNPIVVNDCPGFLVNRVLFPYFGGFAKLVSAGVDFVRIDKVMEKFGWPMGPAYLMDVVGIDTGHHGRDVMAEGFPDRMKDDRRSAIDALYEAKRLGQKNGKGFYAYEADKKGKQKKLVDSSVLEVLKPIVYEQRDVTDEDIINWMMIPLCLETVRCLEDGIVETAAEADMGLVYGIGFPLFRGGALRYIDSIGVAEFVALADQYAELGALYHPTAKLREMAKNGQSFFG
# Target: T1, 3-hydroxyacyl-CoA dehydrogenase activity of multi-active enzyme (Pseudomonas fragi, UniProt P28793)
# T1 construct: Crude enzyme was prepared from microbial cells of Pseudomonas fragi B-0771; endogenous in cells; host or cells: Pseudomonas fragi B-0771 FERM-P No. 5701 (enzyme extracted with lysozyme and purified from its own cells, not recombinant)
# Experiment: Effect of surface active agents on 3-hydroxyacyl-CoA dehydrogenase activity
# Type: biochemical, Pseudomonas fragi B-0771
# Settings: 10 min; 0.1% surface active agent; control 100; read-out: Relative activity
# Protocol: The enzyme solution (50 μl) was added to the above reaction mixture, which was preincubated at 27° C. for 2 minutes, and the mixture was incubated at 37° C. for 10 minutes. 0.5% sodium dodecyl sulfate (2.0 ml) was added to stop the reaction and the absorbency was measured at 550 nm (ΔA550) One unit (1 U) is defined as the amount of enzyme which generates 1 μmole of reduced NAD in one minute. Enzyme activity is defined by the following equation: [formula] (c) Assay method of 3-ketoacyl-CoA thiolase activity:
# (10) Effect of surface active agents:
# The effect of surface active agents was measured on 3-hydroxyacyl-CoA dehydrogenase activity.
smiles,measurement,value
CCCCCCCCCCCCCCCC[n+]1ccccc1 [cetylpyridinium chloride],activity at 0.1 %,0%
